Values from PubChem BioAssay AID686938 (Drosophila RNAi Screening Center, 2013).
Aim: 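Looking for CRAC channel components and the factors controlling them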 (primary screen). System: Drosophila S2R+ cells. Knock-down reagent: long dsRNA against Drosophila genes, about 0.25 µg dsRNA per well, roughly 10,000 cells. Time to read-out: 5 days of knock-down before the calcium assay. Treatment: thapsigargin (SERCA pump blocker) to empty calcium stores; entry signal taken 4 min after adding it. Measured: 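Duplicate raw fluo-4 intensities per well from a plate reader, at rest and four minutes after thapsigargin emptied calcium stores; entry-to-rest ratio filled for only some wells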. Scale: calcium entry signal: higher = stronger calcium signal after store depletion; resting calcium signal: higher = higher resting calcium signal. Call rule: 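Called when the plate z-score of the entry-to-rest ratio, mean of duplicates, falls below −3; wells with low overall dye signal (Fmax z below −2) or more than five off-targets excluded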. Calls: active = strongly reduced calcium entry; inactive = no strong reduction.
The deposit covers about 23,000 reagents; this is an unselected part of those with a known target gene and a result. Over the whole deposit, 75 (0.33%) are marked active. 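Raw plate signals without normalisation; calls rest on plate z-scores that were not deposited; ratio present for only 364 wells.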 Names joined by + are all predicted targets of the reagent. Not stated in the record: the dose of the treatment.

no.	target gene	PubChem SID	calcium entry signal, replicate 1 (fluorescence units)	calcium entry signal, replicate 2 (fluorescence units)	resting calcium signal, replicate 1 (fluorescence units)	resting calcium signal, replicate 2 (fluorescence units)	Outcome
1	CG13314	SID104189777	3.30e7	4.20e7	1.59e7	1.98e7	inactive
2	CG31664	SID104201655	3.93e7	4.63e7	1.95e7	2.71e7	inactive
3	mRpS21	SID104192757	2.91e7	4.78e7	1.40e7	2.01e7	inactive
4	mRpS21	SID104201131	2.90e7	4.54e7	1.56e7	1.75e7	inactive
5	CecC	SID104196398	3.29e7	4.66e7	1.72e7	1.97e7	inactive
6	iotaTry	SID104187426	3.17e7	3.33e7	1.63e7	1.61e7	inactive
7	Rich	SID104191399	3.33e7	4.32e7	1.62e7	3.00e7	inactive
8	CG15611	SID104186355	2.33e7	2.40e7	1.03e7	1.16e7	inactive
9	CG15611	SID104186356	4.93e7	4.52e7	2.16e7	2.20e7	inactive
10	CG11815	SID104188001	2.39e7	2.72e7	1.30e7	1.32e7	inactive
11	CG10979	SID104191945	4.51e7	3.42e7	2.19e7	1.77e7	inactive
12	Nf1	SID104196550	2.62e7	2.74e7	1.16e7	1.31e7	inactive
13	bap	SID104196700	4.75e7	2.41e7	2.10e7	1.26e7	inactive
14	CG7737	SID104186825	2.39e7	2.59e7	1.13e7	1.16e7	inactive
15	CG8929	SID104187090	3.59e7	3.34e7	1.58e7	1.62e7	inactive
16	CG8929	SID104202206	2.61e7	4.07e7	1.39e7	1.60e7	inactive
17	CG14488	SID104186252	4.40e7	4.86e7	1.79e7	2.17e7	inactive
18	mRNA-cap	SID104199581	1.94e7	1.82e7	1.34e7	1.13e7	inactive
19	He + NimB5	SID104202235	4.27e7	3.83e7	2.27e7	1.59e7	inactive
20	CG14742	SID104194754	1.97e7	1.82e7	1.14e7	9.57e6	inactive
21	CG42331	SID104194425	2.32e7	2.11e7	1.20e7	1.27e7	inactive
22	CG42331	SID104195918	2.55e7	4.50e7	1.33e7	1.93e7	inactive
23	phtm	SID104200029	3.66e7	3.12e7	1.78e7	1.36e7	inactive
24	Ak6	SID104187066	3.47e7	3.56e7	1.76e7	1.81e7	inactive
25	CG43174 (retired record)	SID104189310	3.36e7	3.38e7	1.65e7	1.89e7	inactive
26	CG7006	SID104195961	2.85e7	2.56e7	1.52e7	1.29e7	inactive
27	ana	SID104187371	5.86e7	4.51e7	2.53e7	2.06e7	inactive
28	Cpr30B	SID104182520	3.21e7	4.80e7	1.49e7	2.01e7	inactive
29	Rilpl	SID104198286	3.12e7	3.56e7	1.40e7	1.58e7	inactive
30	CG5885	SID104182702	4.71e7		2.01e7		inactive
31	sha	SID104186123	2.98e7	3.18e7	1.48e7	1.54e7	inactive
32	Syn	SID104196668	2.98e7	2.82e7	1.38e7	1.50e7	inactive
33	CG10301	SID104194018	4.57e7	4.22e7	2.16e7	1.94e7	inactive
34	Grl43a	SID104186175	4.70e7	3.35e7	2.05e7	1.66e7	inactive
35	Jhe	SID104186966	4.53e7	4.69e7	2.00e7	2.15e7	inactive
36	Vps16A	SID104196214	2.48e7	3.02e7	1.67e7	1.75e7	inactive
37	CG9541	SID104183049	2.52e7	3.24e7	1.25e7	1.48e7	inactive
38	wbl	SID104187510	3.54e7	2.92e7	1.53e7	1.42e7	inactive
39	Obp83ef	SID104192060	5.09e7	3.39e7	2.44e7	1.69e7	inactive
40	CG3176 + CR18166 + CG32817	SID104197063	5.21e7	4.62e7	2.68e7	2.04e7	inactive
41	CG3176 + CR18166 + CG32817	SID104197074	4.40e7	4.09e7	2.26e7	1.86e7	inactive
42	CG3176 + CR18166 + CG32817	SID104198080	3.89e7	4.15e7	1.61e7	1.88e7	inactive

Ordered by “resting calcium signal, replicate 1 (fluorescence units)” (descending): 2 of the entries above.
target gene	PubChem SID	calcium entry signal, replicate 1 (fluorescence units)	calcium entry signal, replicate 2 (fluorescence units)	resting calcium signal, replicate 1 (fluorescence units)	resting calcium signal, replicate 2 (fluorescence units)	Outcome
iotaTry	SID104187426	3.17e7	3.33e7	1.63e7	1.61e7	inactive
Rich	SID104191399	3.33e7	4.32e7	1.62e7	3.00e7	inactive
